“And” between values parts separate entries of the source, which are not always exact repeats. Identical values can stand only once. The list shows a part of the results. This data set is noisy: repeats of one test often differ as much as different tests do.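 HEK293T cells were given each compound shortly before transfection with a reporter in which red mCherry is followed by the SARS-CoV-2 frameshift element and then GFP in the −1 frame, so GFP appears only after frameshifting.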
Test system: HEK293T
Test: percent viability (nuclei count) relative to control; higher = more viable cells
Details: 10 µM; 24 h

| Structure (SMILES) | percent viability |
| --- | --- |
| Cc1ccc2nc(C)c(CCN3CCC(C(=O)c4ccc(F)cc4)CC3)c(=O)n2c1 [metrenperone] | 68% |
| Cc1cc(=O)oc2cc(OS(=O)(=O)O)c(OS(=O)(=O)O)cc12 [sulmarin] | 305% |
| CCOC(=O)/C=C(C)/C=C/C=C(C)/C=C/c1c(C)cc(OC)c(C)c1C [etretinate] | 280% |
| CC(C)(C(=O)O)c1ccc(C(O)CCCN2CCC(C(O)(c3ccccc3)c3ccccc3)CC2)cc1 (stereo not given) | 203% |
| CC(C)(O/N=C(\C(=O)N[C@@H]1C(=O)N2C(C(=O)[O-])=C(C[n+]3ccccc3)CS[C@H]12)c1csc(N)n1)C(=O)O | 135% |
| Cn1c([N+](=O)[O-])cnc1COC(N)=O [ronidazole] | 163% |
| C=CCn1c(N)cc(=O)n(CC)c1=O [Mictine] | 105% |
| C#C[C@]1(O)CC[C@H]2[C@@H]3CCC4=CC(=O)CC[C@@H]4[C@H]3CC[C@@]21C [norethisterone] | 341% and 262% |
| CNCCC(Oc1ccc(C(F)(F)F)cc1)c1ccccc1 (stereo not given) [fluoxetine] | 382% and 297% |
| Cc1cc(C(C)(C)C)cc(C)c1CC1=NCCN1 [xylometazoline] | 143% |
| CN(C)CCCN1c2ccccc2Sc2ccccc21 [promazine] | 146% |
| CC(=O)CC(c1ccccc1)c1c(O)c2ccccc2oc1=O (stereo not given) | 177% |
| CNCCCC1c2ccccc2C=Cc2ccccc21 | 331% |
| CC(C(=O)O)c1ccc(C(=O)c2ccccc2)s1 (stereo not given) [tiaprofenic acid] | 187% |
| CC(=O)O[C@]1(C(C)=O)CC[C@H]2[C@@H]3C=C(Cl)C4=CC(=O)[C@@H]5C[C@@H]5[C@]4(C)[C@H]3CC[C@@]21C [Cyproterone Acetate] | 179% |

Source: the supplement of paper PMC8256030
